{
  "source": "patent US11274126B2",
  "about": "(University of Rhode Island Board of Trustees, priority 2016, dated 2022)",
  "note": "Some peptides are written in HELM: one residue between dots, names in brackets for other building blocks, links after the first $.",
  "data": [
    {"experiment": "general procedure: Fmoc solid-phase peptide synthesis; H-Trp(Boc)-2-chlorotrityl resin (0.78 mmol/g); HBTU; DIC/HOAt for cyclization", "conditions": "whole synthesis, scale 0.3 mmol", "units": {"final HPLC purity": "%"}, "values": [
      {"substance": "PEPTIDE1{W.E.W.E.W.E.W.E.W.C}$PEPTIDE1,PEPTIDE1,1:R1-10:R2$$$V2.0", "final HPLC purity": 99},
      {"substance": "l(CW(EW)4) (CWEWEWEWEW)", "final HPLC purity": 99}
    ]},
    {"experiment": "general procedure: Fmoc solid-phase peptide synthesis; H-Trp(Boc)-2-chlorotrityl resin (0.78 mmol/g); HBTU; DIC/HOAt for cyclization", "conditions": "whole synthesis, scale of the general procedure 0.3 mmol", "units": {"final HPLC purity": "%"}, "values": [
      {"substance": "PEPTIDE1{E.E.E.E.W.W.W.W.W.C}$PEPTIDE1,PEPTIDE1,1:R1-10:R2$$$V2.0", "final HPLC purity": 99},
      {"substance": "PEPTIDE1{L.E.L.E.L.E.L.E.W.C}$PEPTIDE1,PEPTIDE1,1:R1-10:R2$$$V2.0", "final HPLC purity": 95},
      {"substance": "PEPTIDE1{R.R.R.R.W.W.W.W.W.C}$PEPTIDE1,PEPTIDE1,1:R1-10:R2$$$V2.0", "final HPLC purity": 99},
      {"substance": "c[(WE)3WC] (WEWEWEWC; cyclic)", "final HPLC purity": 99},
      {"substance": "c[(WE)5WC] (WEWEWEWEWEWC; cyclic)", "final HPLC purity": 99}
    ]}
  ]
}
